Measurements: publication PMC9266683
No constants are given. Whether binding was seen depends on the method and setting. For part of these data: In cells and extracts the contact can be indirect. Some entries that bind do so weakly or less than the wild type. Where a sequence is shown, tags or fusion partners need not be part of it.

The chains behind the UniProt entries cited, without tags or fusion partners.
UniProt O48686: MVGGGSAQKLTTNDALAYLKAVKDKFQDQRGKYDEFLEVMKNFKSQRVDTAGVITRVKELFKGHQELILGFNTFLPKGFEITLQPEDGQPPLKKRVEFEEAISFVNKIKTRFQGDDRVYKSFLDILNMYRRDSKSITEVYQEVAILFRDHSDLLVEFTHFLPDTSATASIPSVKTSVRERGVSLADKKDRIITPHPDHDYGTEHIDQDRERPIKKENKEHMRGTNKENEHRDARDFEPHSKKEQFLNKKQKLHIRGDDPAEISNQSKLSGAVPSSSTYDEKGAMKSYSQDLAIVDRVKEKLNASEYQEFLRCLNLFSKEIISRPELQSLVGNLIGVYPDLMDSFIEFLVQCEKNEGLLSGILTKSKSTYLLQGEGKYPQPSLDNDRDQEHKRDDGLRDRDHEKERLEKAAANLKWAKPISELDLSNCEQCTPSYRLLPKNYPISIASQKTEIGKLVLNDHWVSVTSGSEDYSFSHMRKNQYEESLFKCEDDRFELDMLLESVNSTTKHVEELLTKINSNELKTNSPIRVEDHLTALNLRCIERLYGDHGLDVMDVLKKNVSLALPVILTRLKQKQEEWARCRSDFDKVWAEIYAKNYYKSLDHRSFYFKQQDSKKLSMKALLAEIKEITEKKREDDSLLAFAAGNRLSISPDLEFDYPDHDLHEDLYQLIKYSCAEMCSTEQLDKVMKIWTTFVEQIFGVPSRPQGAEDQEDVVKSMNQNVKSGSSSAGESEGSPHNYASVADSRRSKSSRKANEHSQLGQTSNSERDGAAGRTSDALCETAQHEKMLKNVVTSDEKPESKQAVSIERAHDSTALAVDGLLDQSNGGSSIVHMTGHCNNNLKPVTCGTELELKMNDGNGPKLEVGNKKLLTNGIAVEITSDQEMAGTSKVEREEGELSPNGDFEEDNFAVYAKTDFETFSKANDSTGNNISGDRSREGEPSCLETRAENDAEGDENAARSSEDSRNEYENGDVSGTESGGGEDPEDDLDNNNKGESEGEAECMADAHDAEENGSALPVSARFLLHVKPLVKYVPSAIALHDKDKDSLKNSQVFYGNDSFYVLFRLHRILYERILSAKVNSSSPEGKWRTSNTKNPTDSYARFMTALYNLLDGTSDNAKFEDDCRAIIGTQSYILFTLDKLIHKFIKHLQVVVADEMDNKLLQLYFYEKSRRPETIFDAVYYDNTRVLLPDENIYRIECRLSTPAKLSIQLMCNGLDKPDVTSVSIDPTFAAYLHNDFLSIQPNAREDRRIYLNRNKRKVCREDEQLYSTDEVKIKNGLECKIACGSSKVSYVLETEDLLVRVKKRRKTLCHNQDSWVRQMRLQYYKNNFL
UniProt O04539: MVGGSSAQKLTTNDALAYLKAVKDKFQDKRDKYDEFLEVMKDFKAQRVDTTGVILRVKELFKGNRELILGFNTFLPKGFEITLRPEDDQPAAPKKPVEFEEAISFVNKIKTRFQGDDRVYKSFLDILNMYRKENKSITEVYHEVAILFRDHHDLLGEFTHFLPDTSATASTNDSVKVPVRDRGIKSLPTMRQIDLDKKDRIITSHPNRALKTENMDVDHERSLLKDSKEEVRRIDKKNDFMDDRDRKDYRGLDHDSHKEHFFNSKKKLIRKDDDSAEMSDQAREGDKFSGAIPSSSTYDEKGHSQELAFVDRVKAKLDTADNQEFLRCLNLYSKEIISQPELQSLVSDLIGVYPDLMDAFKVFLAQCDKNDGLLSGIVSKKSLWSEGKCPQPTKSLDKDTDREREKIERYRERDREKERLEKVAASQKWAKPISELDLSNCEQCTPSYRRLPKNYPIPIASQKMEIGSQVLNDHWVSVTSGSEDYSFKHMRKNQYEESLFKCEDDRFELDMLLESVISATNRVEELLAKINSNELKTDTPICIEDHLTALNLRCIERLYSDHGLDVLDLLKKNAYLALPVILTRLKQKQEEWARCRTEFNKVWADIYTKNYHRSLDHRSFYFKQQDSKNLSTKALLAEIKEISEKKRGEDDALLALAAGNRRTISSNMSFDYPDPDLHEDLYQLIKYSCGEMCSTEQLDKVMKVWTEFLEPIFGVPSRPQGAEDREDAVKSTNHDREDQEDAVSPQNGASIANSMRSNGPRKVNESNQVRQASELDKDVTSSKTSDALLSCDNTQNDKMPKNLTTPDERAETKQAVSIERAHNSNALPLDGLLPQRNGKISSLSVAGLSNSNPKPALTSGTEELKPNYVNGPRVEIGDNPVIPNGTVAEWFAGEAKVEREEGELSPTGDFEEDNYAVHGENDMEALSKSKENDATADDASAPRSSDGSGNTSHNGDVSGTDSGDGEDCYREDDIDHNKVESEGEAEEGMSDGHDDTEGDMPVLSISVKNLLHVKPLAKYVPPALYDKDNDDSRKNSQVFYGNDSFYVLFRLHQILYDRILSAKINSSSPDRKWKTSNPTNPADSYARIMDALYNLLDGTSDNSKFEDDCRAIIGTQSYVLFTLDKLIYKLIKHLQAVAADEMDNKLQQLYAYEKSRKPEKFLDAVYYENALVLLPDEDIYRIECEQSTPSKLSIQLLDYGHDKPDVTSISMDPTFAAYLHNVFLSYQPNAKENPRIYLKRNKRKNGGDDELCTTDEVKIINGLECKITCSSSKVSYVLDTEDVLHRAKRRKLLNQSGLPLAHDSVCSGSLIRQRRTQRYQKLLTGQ
UniProt Q9XIK6: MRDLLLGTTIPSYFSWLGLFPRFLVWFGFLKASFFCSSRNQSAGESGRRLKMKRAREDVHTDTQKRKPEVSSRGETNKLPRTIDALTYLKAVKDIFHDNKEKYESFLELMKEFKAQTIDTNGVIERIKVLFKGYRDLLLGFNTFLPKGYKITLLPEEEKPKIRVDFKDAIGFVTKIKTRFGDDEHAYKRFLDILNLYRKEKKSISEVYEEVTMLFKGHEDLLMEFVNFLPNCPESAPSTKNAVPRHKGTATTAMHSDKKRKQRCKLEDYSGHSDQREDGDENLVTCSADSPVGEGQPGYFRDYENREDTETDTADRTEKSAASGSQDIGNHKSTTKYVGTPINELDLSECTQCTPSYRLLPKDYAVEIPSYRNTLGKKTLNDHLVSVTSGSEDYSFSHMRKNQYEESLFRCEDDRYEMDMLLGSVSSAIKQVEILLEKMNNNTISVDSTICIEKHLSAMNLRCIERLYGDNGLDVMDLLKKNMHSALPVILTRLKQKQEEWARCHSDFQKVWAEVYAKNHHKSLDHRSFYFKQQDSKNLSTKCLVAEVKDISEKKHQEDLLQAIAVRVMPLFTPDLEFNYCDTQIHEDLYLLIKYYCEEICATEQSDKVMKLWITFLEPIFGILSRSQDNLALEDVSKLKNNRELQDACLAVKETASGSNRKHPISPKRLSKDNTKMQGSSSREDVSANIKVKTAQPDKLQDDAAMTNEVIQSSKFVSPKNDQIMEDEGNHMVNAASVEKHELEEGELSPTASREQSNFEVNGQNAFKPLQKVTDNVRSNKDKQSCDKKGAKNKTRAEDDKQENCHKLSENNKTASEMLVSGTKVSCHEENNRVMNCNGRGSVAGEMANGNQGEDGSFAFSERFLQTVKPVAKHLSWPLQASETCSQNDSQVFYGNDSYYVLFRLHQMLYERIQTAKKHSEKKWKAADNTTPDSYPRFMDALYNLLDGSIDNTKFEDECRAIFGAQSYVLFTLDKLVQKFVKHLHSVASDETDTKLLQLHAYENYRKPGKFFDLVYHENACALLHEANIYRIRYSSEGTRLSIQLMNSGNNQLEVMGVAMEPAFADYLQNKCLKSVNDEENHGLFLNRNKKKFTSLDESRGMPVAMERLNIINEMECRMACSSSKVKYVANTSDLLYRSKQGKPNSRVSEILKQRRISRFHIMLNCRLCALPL
UniProt Q9XIE1: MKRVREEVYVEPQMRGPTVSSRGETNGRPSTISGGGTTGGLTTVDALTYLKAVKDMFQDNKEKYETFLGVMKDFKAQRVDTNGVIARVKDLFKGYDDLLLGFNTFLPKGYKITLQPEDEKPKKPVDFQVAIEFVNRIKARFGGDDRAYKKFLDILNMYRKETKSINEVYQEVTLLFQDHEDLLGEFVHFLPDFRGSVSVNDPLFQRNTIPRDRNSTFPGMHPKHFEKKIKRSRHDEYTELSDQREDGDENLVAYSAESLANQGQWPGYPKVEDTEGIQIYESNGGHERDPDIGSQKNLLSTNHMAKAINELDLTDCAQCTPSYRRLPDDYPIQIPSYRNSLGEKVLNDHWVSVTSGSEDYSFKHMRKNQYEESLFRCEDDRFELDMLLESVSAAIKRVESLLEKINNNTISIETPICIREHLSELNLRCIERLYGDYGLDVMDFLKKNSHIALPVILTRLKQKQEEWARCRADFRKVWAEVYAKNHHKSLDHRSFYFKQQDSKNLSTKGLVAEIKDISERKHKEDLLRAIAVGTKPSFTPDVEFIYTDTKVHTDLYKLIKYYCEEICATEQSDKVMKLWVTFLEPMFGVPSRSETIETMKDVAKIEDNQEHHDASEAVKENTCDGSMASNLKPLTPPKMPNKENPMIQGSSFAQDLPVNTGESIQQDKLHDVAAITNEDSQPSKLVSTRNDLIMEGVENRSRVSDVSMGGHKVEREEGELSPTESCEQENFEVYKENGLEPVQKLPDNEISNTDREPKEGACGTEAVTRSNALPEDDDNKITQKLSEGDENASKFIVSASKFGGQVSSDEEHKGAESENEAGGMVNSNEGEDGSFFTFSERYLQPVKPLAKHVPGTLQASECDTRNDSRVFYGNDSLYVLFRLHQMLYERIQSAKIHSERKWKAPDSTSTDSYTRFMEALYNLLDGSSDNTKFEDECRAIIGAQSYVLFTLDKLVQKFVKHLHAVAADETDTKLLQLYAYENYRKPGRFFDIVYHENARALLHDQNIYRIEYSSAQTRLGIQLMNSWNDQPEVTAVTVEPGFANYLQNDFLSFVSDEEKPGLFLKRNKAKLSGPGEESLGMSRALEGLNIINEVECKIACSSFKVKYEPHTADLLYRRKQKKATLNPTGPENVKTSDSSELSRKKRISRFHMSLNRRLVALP

T1: GST-VAL1-CW (aa 458–673) (Arabidopsis thaliana) (UniProt Q8W4L5)
T1 sequence: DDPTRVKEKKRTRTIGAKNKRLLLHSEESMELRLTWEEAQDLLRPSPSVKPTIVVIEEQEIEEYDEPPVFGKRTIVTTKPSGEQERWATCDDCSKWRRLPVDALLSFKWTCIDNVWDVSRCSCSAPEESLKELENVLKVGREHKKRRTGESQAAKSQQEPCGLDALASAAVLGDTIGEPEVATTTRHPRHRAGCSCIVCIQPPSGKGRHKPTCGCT


Assays:
[1] = molecular target: T1, GST-VAL1-CW (aa 458–673) (Arabidopsis thaliana); experiment: pull-down; supernatants of E. coli lysates in PBS pH 7.5 mixed in roughly equal amounts, incubated with glutathione beads or Ni Singarose 6FF overnight at 4 °C, washed five times with PBS; GST fusion held, His fusion detected with anti-His antibody
[2] = molecular target: SNL3 (SIN3-LIKE 3), full length, fused to the GAL4 binding domain (Arabidopsis thaliana) (UniProt O48686); experiment: two-hybrid; Matchmaker GAL4 two-hybrid system 3, yeast AH109; VAL1 constructs in pGADT7 (AD), SNL constructs in pGBKT7 (BD); growth on medium lacking Trp, Leu, His and Ade, 3-5 d at 30 °C

| Molecule | binding [1] | binding [2] |
| --- | --- | --- |
| His-SNL4, full length (from UniProt O04539 1-1326) | binds |  |
| His-SNL2, full length (protein, UniProt Q9LFQ3 1-1367) MKRIRDDIYATGSQFKRPLGSSRGESYEQSPITGGGSIGEGGINTQKLTTDDALTYLKEVKEMFQDQRDKYDMFLEVMKDFKAQKTDTSGVISRVKELFKGHNNLIFGFNTFLPKGFEITLDDVEAPSKKTVEFEEAISFVNKIKTRFQHNELVYKSFLEILNMYRKDNKDITEVYNEVSTLFEDHSDLLEEFTRFLPDSLAPHTEAQLLRSQAQRYDDRGSGPPLVRRMFMEKDRRRERTVASRGDRDHSVDRSDLNDDKSMVKMHRDQRKRVDKDNRERRSRDLEDGEAEQDNLQHFSEKRKSSRRMEGFEAYSGPASHSEKNNLKSMYNQAFLFCEKVKERLCSQDDYQAFLKCLNMFSNGIIQRKDLQNLVSDVLGKFPDLMDEFNQFFERCESIDGFQHLAGVMSKKSLGSEENLSRSVKGEEKDREHKRDVEAAKEKERSKDKYMGKSIQELDLSDCERCTPSYRLLPPDYPIPSVRHRQKSGAAVLNDHWVSVTSGSEDYSFKHMRRNQYEESLFRCEDDRFELDMLLESVGSAAKSAEELLNIIIDKKISFEGSFRIEDHFTALNLRCIERLYGDHGLDVTDLIRKNPAAALPVILTRLKQKQDEWTKCREGFNVVWADVYAKNHYKSLDHRSFYFKQQDSKNLSAKALVSEVKDLKEKSQKEDDVVLSISAGYRQPIIPHLEYDYLDRAIHEDLFKLVQFSCEEICSTKEQTGKVLKLWANFLELMLDVAPRAKGSDSVEDVVETQHQRAFTSGEANESSDAISLVSRQLKFATNGDVHASSGVSKHGETGLLNRDSSGKENLKDGDLANKDVATCAEKPQKDQEIGNGAAKRSGDVDERVATSSSSFPSGVENNNGKVGSRDSSGSRGILSKPSEAIDKVDSIQHTQGVDIGRIIVLGNGLQSDTSKANSNYDESGGPSKIEKEEGELSPVGDSEDNFVVYEDRELKATAKTEHSVEAEGENDEDADDEDGDDASEAGEDASGTESIGDECSQDDNGVEEEGEHDEIDGKAESEGEAEGMESHLIEDKGLFPSSERVLLSVKPLSKHIAAAALVDEKKKDSRVFYGNDDFYVLFRLHRVSAIDSYDLLSHILYERILSAKTYCSGSEMKLRNTKDTCSPDPYARFMNALFSLLNGSAENSKFEDECRAIIGNQSYVLFTLEKLIYKLVKQLQAVVADDMDNKLLQLYEYENSRRPGRVFDSVYYENARILLHEENIYRLECSSSPSRLSIQLMDNIIEKPDAYAVSMEPTFTSYLQNEFLSNSSGKKELQDIVLQRNMRGYNGLDDLAVACKAMEGVQVINGLECKMSCSSYKISYVLDTEDFFHRKKKQKKSNNLSLAKLSQNRIARFHKFLSASR | binds |  |
| His-SNL1, full length (protein, UniProt Q9SRH9 1-1372) MKRIRDDVYASGSQFRRPLGSSRGQLCGQSPVHGSGDTEEEEEGGSRRVSQKLTTNDALSYLREVKEMFQDQREKYDRFLEVMKDFKAQRTDTGGVIARVKELFKGHNNLIYGFNTFLPKGYEITLIEEDDALPKKTVEFEQAINFVNKIKMRFKHDEHVYKSFLEILNMYRKENKEIKEVYNEVSILFQGHLDLLEQFTRFLPASLPSHSAAQHSRSQAQQYSDRGSDPPLLHQMQVEKERRRERAVALRGDYSVERYDLNDDKTMVKIQREQRKRLDKENRARRGRDLDDREAGQDNLHHFPEKRKSSRRAEALEAYSGSASHSEKDNLKSMYKQAFVFCEKVKDRLCSQDDYQTFLKCLNIFSNGIIQRKDLQNLVSDLLGKFPDLMDEFNQFFERCESITDGFQRLAGVMSKKLFSSEEQLSRPMKVEEKESEHKPELEAVKETEQCKKEYMGKSIQELDLSDCECCTPSYRLLPADYPIPIASQRSELGAEVLNDHWVSVTSGSEDYSFKHMRRNQYEESLFRCEDDRFELDMLLESVSSAARSAESLLNIITEKKISFSGSFRIEDHFTALNLRCIERLYGDHGLDVIDILNKNPATALPVILTRLKQKQGEWKKCRDDFDKVWANVYAKNHYKSLDHRSFYFKQQDSKNLSAKSLLAEIKELKEKSQNDDDVLLSISAGYRQPINPNLEYEYLNRAIHEDMFKVVQFSCEELCSTKEQLSKVLRLWENFLEAVLGVPPRAKGTDLVEDVVINPKTLDVNHSTSPNGEAAVSSGGDTARLASRKLKSAANGDENSSSGTFKHGIGLLNKDSTGKENLEDVEIANRDGVACSAVKPQKEQETGNEAEKRFGKPIPMDISERAAISSISIPSGAENNHCVVGKEVLPGAHEIQAKPSDTLTDIHHDVDSIETVHSTQGGDVGNSIVLANGLRSDSSKGTRNSDDPEGPSRNEKEEGELSPNGDFEDNFGVYKDHGVKSTSKPENSAEAEVEADAEVENEDDADDVDSENASEASGTESGGDVCSQDEDREEENGEHDEIDGKAESEGEAEGMDPHLLEGESELLPQSERVLLSVRPLSKHVAAVLCDERTKDLQVFYGNDDFYVLFRLHQILYERILYAKRNCSGGELKSKNLKDTNAGDPYARFMRVLYGLLDGSAENTKFEDECRAIIGNQSYVLFTLDKLIYRLVKQLQAIVADEMDNKLLQLYEYEKSRKPGRVIDSVYYENVRVLVHEENIYRLECSSLPSRLSIQLMDNIIEKPEAYAVSMDPTFASYMQTELLSVSSGKKEEGHDIVLQRNLTGLYDLCKAMEGVEVVNGLECKMSCSSYKIAYVLDTEDYFHRKKKKKKTEQLWQRNKVRVERFHRFLSA | binds |  |
| VAL1-CW.EAR (aa 458–790), fused to the GAL4 activating domain (domain or fragment, UniProt Q8W4L5 458-790) DDPTRVKEKKRTRTIGAKNKRLLLHSEESMELRLTWEEAQDLLRPSPSVKPTIVVIEEQEIEEYDEPPVFGKRTIVTTKPSGEQERWATCDDCSKWRRLPVDALLSFKWTCIDNVWDVSRCSCSAPEESLKELENVLKVGREHKKRRTGESQAAKSQQEPCGLDALASAAVLGDTIGEPEVATTTRHPRHRAGCSCIVCIQPPSGKGRHKPTCGCTVCSTVKRRFKTLMMRRKKKQLERDVTAAEDKKKKDMELAESDKSKEEKEVNTARIDLNSDPYNKEDVEAVAVEKEESRKRAIGQCSGVVAQDASDVLGVTELEGEGKNVREEPRVSS |  | binds |
| VAL1-PHD.B3 (aa 1–457), fused to the GAL4 activating domain (domain or fragment, UniProt Q8W4L5 1-457) MFEVKMGSKMCMNASCGTTSTVEWKKGWPLRSGLLADLCYRCGSAYESSLFCEQFHKDQSGWRECYLCSKRLHCGCIASKVTIELMDYGGVGCSTCACCHQLNLNTRGENPGVFSRLPMKTLADRQHVNGESGGRNEGDLFSQPLVMGGDKREEFMPHRGFGKLMSPESTTTGHRLDAAGEMHESSPLQPSLNMGLAVNPFSPSFATEAVEGMKHISPSQSNMVHCSASNILQKPSRPAISTPPVASKSAQARIGRPPVEGRGRGHLLPRYWPKYTDKEVQQISGNLNLNIVPLFEKTLSASDAGRIGRLVLPKACAEAYFPPISQSEGIPLKIQDVRGREWTFQFRYWPNNNSRMYVLEGVTPCIQSMMLQAGDTVTFSRVDPGGKLIMGSRKAANAGDMQGCGLTNGTSTEDTSSSGVTENPPSINGSSCISLIPKELNGMPENLNSETNGGRIG |  | no binding |
| VAL1-EAR (aa 674–790), fused to the GAL4 activating domain (domain or fragment, UniProt Q8W4L5 674-790) VCSTVKRRFKTLMMRRKKKQLERDVTAAEDKKKKDMELAESDKSKEEKEVNTARIDLNSDPYNKEDVEAVAVEKEESRKRAIGQCSGVVAQDASDVLGVTELEGEGKNVREEPRVSS |  | no binding |

Next, values leading:

| binding [1] | binding [2] | Molecule |
| --- | --- | --- |
| binds |  | His-SNL6, full length (from UniProt Q9XIK6 1-1173) |
| binds |  | His-SNL5, full length (from UniProt Q9XIE1 1-1162) |
| binds |  | His-SNL3, full length (from UniProt O48686 1-1330) |
|  | binds | VAL1-B3.CW (aa 208–673), fused to the GAL4 activating domain (domain or fragment, UniProt Q8W4L5 208-673) EAVEGMKHISPSQSNMVHCSASNILQKPSRPAISTPPVASKSAQARIGRPPVEGRGRGHLLPRYWPKYTDKEVQQISGNLNLNIVPLFEKTLSASDAGRIGRLVLPKACAEAYFPPISQSEGIPLKIQDVRGREWTFQFRYWPNNNSRMYVLEGVTPCIQSMMLQAGDTVTFSRVDPGGKLIMGSRKAANAGDMQGCGLTNGTSTEDTSSSGVTENPPSINGSSCISLIPKELNGMPENLNSETNGGRIGDDPTRVKEKKRTRTIGAKNKRLLLHSEESMELRLTWEEAQDLLRPSPSVKPTIVVIEEQEIEEYDEPPVFGKRTIVTTKPSGEQERWATCDDCSKWRRLPVDALLSFKWTCIDNVWDVSRCSCSAPEESLKELENVLKVGREHKKRRTGESQAAKSQQEPCGLDALASAAVLGDTIGEPEVATTTRHPRHRAGCSCIVCIQPPSGKGRHKPTCGCT |
|  | no binding | VAL1-PHD (aa 1–207), fused to the GAL4 activating domain (domain or fragment, UniProt Q8W4L5 1-207) MFEVKMGSKMCMNASCGTTSTVEWKKGWPLRSGLLADLCYRCGSAYESSLFCEQFHKDQSGWRECYLCSKRLHCGCIASKVTIELMDYGGVGCSTCACCHQLNLNTRGENPGVFSRLPMKTLADRQHVNGESGGRNEGDLFSQPLVMGGDKREEFMPHRGFGKLMSPESTTTGHRLDAAGEMHESSPLQPSLNMGLAVNPFSPSFAT |
|  | no binding | VAL1-B3 (aa 208–457), fused to the GAL4 activating domain (domain or fragment, UniProt Q8W4L5 208-457) EAVEGMKHISPSQSNMVHCSASNILQKPSRPAISTPPVASKSAQARIGRPPVEGRGRGHLLPRYWPKYTDKEVQQISGNLNLNIVPLFEKTLSASDAGRIGRLVLPKACAEAYFPPISQSEGIPLKIQDVRGREWTFQFRYWPNNNSRMYVLEGVTPCIQSMMLQAGDTVTFSRVDPGGKLIMGSRKAANAGDMQGCGLTNGTSTEDTSSSGVTENPPSINGSSCISLIPKELNGMPENLNSETNGGRIG |
